Test results published in PubChem BioAssay AID1487 (National Center for Advancing Translational Sciences (NCATS), 2009).
This is one part of the list. The main result of the screen is listed elsewhere. These columns were measured beside it and carry no call. Compounds called inactive in the main read-out are mostly missing here. The note in brackets gives the kind of curve behind each potency; many fits are weak.

Assay: qHTS Assay for Modulators of Lamin A Splicing
Settings: HeLa LMNA splicing GFP/RFP minigene ratio, 48 h
Method in brief: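 S3 HeLa stable clones carrying a lamin A-EGFP splicing minigene plus DsRed2 were seeded at 600 cells/well in Opti-MEM with 2% FBS, pin-dosed and incubated 48 h at 37°C. Acumen cytometry (488 nm) gave the GFP/RFP total-intensity ratio.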

[1] = measured here: RFP viability control channel
[2] = measured here: GFP splicing reporter channel

CCCCCC(=O)Nc1ccccc1N1CCN(c2ccccc2)CC1
AC50 [1]: 35.5 µM [rising, single point]

CC(=O)c1c(O)ccc2c(-c3ccccc3)cc(=O)oc12
AC50 [2]: 35.5 µM [rising, single point]
AC50 [1]: 35.5 µM [rising, single point]

CS(=O)(=O)c1ccc(C(=O)NCCN2C(=O)S/C(=C\c3cccnc3)C2=O)cc1[N+](=O)[O-]
AC50 [2]: 1.78 µM [falling, full curve, poor fit]
AC50 [1]: 5.62 µM [falling, single point]

Oc1ccc(O)c(Cc2nc3ccccc3[nH]2)c1
AC50 [2]: 35.5 µM [falling, single point]
AC50 [1]: 35.5 µM [falling, single point]

COc1ccc(-c2nnc(SC(C)C(=O)Nc3c(C)n(C)n(-c4ccccc4)c3=O)o2)cc1 (stereo not drawn)
AC50 [1]: 0.316 µM [falling, full curve, poor fit]

CCOC(=O)c1c(NC(=O)C(C)Sc2cccc[n+]2[O-])sc2c1CCN(Cc1ccccc1)C2 (stereo not drawn)
AC50 [2]: 12.6 µM [rising, single point]
AC50 [1]: 25.1 µM [rising, single point]

O=C(NCc1ccco1)C1CCN(c2ccc(S(=O)(=O)N3CCOCC3)cc2[N+](=O)[O-])CC1
AC50 [1]: 0.794 µM [falling, full curve]

CC1NC(=S)N(C2CCCCC2)C1=O (stereo not drawn)
AC50 [2]: 35.5 µM [falling, single point]

CS(=O)(=O)Nc1ccc(C2=NN(C(=O)c3ccco3)C(c3ccc(F)cc3)C2)cc1 (stereo not drawn)
AC50 [1]: 6.31 µM [falling, partial curve, poor fit]

O=C(COC(=O)c1c2c(nc3ccccc13)CCN(Cc1ccccc1)C2)Nc1c(F)cccc1F
AC50 [2]: 17.8 µM [rising, single point]
AC50 [1]: 12.6 µM [rising, single point]

COc1cc(-c2nc3ccc(C)cn3c2Nc2ccc3c(c2)OCCO3)ccc1O
AC50 [2]: 14.1 µM [rising, single point]
AC50 [1]: 15.8 µM [rising, partial curve]

CC1Cc2ccccc2N1Cc1nc2cc(Cl)ccc2c(=O)[nH]1 (stereo not drawn)
AC50 [1]: 35.5 µM [rising, single point]

Cc1ccc(/C(N)=N/OC(=O)c2ccc3c(c2)OCO3)cc1
AC50 [2]: 17.8 µM [falling, single point]
AC50 [1]: 15.8 µM [falling, single point]

COc1ccc([N+](=O)[O-])cc1NC(=S)NC(NC(=O)C(c1ccccc1)c1ccccc1)C(Cl)(Cl)Cl (stereo not drawn)
AC50 [1]: 12.6 µM [rising, partial curve]

COc1ccc(/C=C/C(=O)OCC(=O)NCC2CCCO2)cc1 (stereo not drawn)
AC50 [1]: 0.224 µM [rising, full curve, poor fit]

Cc1ccc(CNC(=O)CSc2nc3c(sc4ccccc43)c(=O)n2CCCOC(C)C)cc1
AC50 [2]: 15.8 µM [rising, single point]
AC50 [1]: 31.6 µM [rising, single point]

Cc1ccc(S(=O)(=O)N2CCCC(C(=O)N3CCCc4ccccc43)C2)cc1 (stereo not drawn)
AC50 [2]: 8.91 µM [rising, partial curve, poor fit]
AC50 [1]: 10 µM [rising, partial curve]

Cc1ccc(CN2CCC(CNC(=O)c3cnn(-c4ccccc4Cl)c3C3CCN(C(=O)OC(C)(C)C)CC3)CC2)cc1
AC50 [2]: 17.8 µM [falling, partial curve, poor fit]
AC50 [1]: 20 µM [falling, partial curve, poor fit]

Cn1cccc1CC(=O)N/N=C\c1ccccc1
AC50 [2]: 2.82 µM [falling, partial curve, poor fit]

O=C(c1ccc(O)cc1)c1ccc(C(=O)c2ccc(O)cc2)cc1
AC50 [2]: 0.0158 µM [falling, full curve, poor fit]
AC50 [1]: 0.0178 µM [falling, full curve, poor fit]

O=[N+]([O-])c1ccc(-c2nnc(-c3ccccc3)c(NCCCO)n2)cc1
AC50 [2]: 10 µM [rising, partial curve]
AC50 [1]: 11.2 µM [rising, single point]

CCn1c(CNC(=O)c2ccco2)nnc1SCC(=O)c1ccccc1
AC50 [2]: 0.00447 µM [falling, full curve, poor fit]

O=C(Nc1nccs1)C1CC(=O)N(Cc2ccco2)C1 (stereo not drawn)
AC50 [2]: 31.6 µM [rising, single point]

COc1ccccc1-c1cncnc1Nc1ccc(F)cc1
AC50 [1]: 10 µM [falling, partial curve]

O=C(c1ccc(Br)o1)N1CCN(C/C=C/c2ccccc2)CC1
AC50 [1]: 22.4 µM [rising, single point]

O=S(=O)(Nc1ccc(-c2cn3ccsc3n2)cc1)c1ccc2c(c1)OCCO2
AC50 [2]: 3.55 µM [rising, full curve]
AC50 [1]: 11.2 µM [rising, partial curve]

Cc1ccc(NS(=O)(=O)c2cc([N+](=O)[O-])ccc2NNC(=S)Nc2cc(C)ccc2C)c(C)c1
AC50 [1]: 31.6 µM [rising, single point]

CN(CC(=O)NC(=O)NCc1ccccc1)Cc1ccc(Cl)c(Cl)c1
AC50 [2]: 15.8 µM [rising, single point]

COc1ccc(S(=O)(=O)N2CCOC2CNC(=O)C(=O)NCCc2c[nH]c3ccccc23)cc1 (stereo not drawn)
AC50 [2]: 14.1 µM [rising, single point]
AC50 [1]: 22.4 µM [rising, partial curve]

CCOC(=O)N1CCC(NC(=O)CCCN2C(=O)CSc3ncccc32)CC1
AC50 [1]: 0.708 µM [falling, full curve, poor fit]

COc1ccc(NC(=O)c2c(NCc3cccs3)sc3c2CCC(C)C3)c(OC)c1 (stereo not drawn)
AC50 [2]: 7.08 µM [falling, partial curve, poor fit]
AC50 [1]: 2.82 µM [falling, full curve]

CCO/C=C/C(O)(CNC(=O)c1ccc(C(C)(C)C)cc1)C(F)(F)F (stereo not drawn)
AC50 [1]: 14.1 µM [rising, single point]

COc1cccc(Cn2c(=O)c(CCc3ccccc3)nc3cncnc32)c1
AC50 [2]: 22.4 µM [falling, single point]
